The test system of data set [1] is healthy adults. The data set can be described thus: Experiment 1: subjective sleepiness ratings (Karolinska Sleepiness Scale). It counts as in vivo, human. The conditions noted are these: 50 mg diphenhydramine, 200-mg caffeine or 0.88 g/kg ethanol, four post-treatment intervals. On the procedure: Each subject participated in […] sessions. The first session was a practice session in which subjects learned to perform the working memory tasks. After training, all subjects participated in 4 sessions, separated by at least one week. […] The four drug sessions were conducted according to a double blind, placebo-controlled, randomized, counterbalanced, crossover design. In each session, subjects consumed two pills (unmarked gelatin capsules) and a mixed drink. […] The pills were given with a 500 cc drink containing either 0.88 g/kg 95% ethanol mixed in fruit juice (adequate to produce an average peak blood alcohol content (BAC) of 0.08), or containing 495 cc of fruit juice with 5 cc of alcohol floated on top to mimic the smell and taste of the treatment drink.
(§1) Each drug session involved a baseline recording before drug administration. This was followed by four post-drug recording intervals, each lasting approximately 40 minutes. The first interval began 0.5 hrs after drug ingestion; the remaining three intervals occurred hourly thereafter. A scientist not otherwise involved in the experiment administered a Breathalyzer test at the beginning of each interval. Subjects also completed the Karolinska and Stanford sleepiness scales at each test period.

The subject of data set [2] is healthy adults. Briefly: Experiment 2: Neurocognitive Function Change (NCFC) index. It counts as in vivo, human.
Data set [3] deals with healthy elderly subjects. The data set can be described thus: Experiment 8: resting and task-related EEG and ERP in elderly. It counts as in vivo, human.
Data set [4] concerns healthy adults. On the procedure: as §1
EEG was continuously recorded from 28 scalp electrodes using a digitally linked-mastoids reference. EOG was recorded from electrodes placed above and below one eye, and at the other canthi of each eye. Physiological signals were band-pass filtered at 0.01 to 100 Hz and sampled at 256 Hz. Automated artifact detection was followed by application of adaptive eye contaminant removal filters. The data were then visually inspected and data segments containing possible residual artifacts were eliminated from subsequent analyses. To examine the effects of the pharmacological interventions on individual EEG or behavioral variables, univariate repeated measures analyses of variance (ANOVAs) were used to compare data from each of the three treatment conditions with the placebo condition.
For neurophysiological features, average power was extracted from individual spectral bands at individual electrode sites, and then compared across test conditions. Decisions as to which parameters to extract from the spectra were based on the results of prior studies. For the task related EEG, past studies indicate that the frontal midline theta rhythm and the parietal alpha rhythm are sensitive to variations in the attentional demands of tasks, and, in particular, to the increase in difficulty in the working memory tasks employed here. For the EEG recorded under passive resting conditions, past studies indicate that activity in the delta and theta bands at posterior sites, and the alpha rhythm measured over the occipital region, are highly sensitive to variations in alertness and arousal. Each of the individual features was compared between placebo and each drug condition in univariate ANOVAs with repeated measures.

The test system of data set [5] is healthy elderly subjects. As to conditions: human, in vivo.

Read-outs that look alike come from different tables or passages of the source.

For `CN(C)CCOC(c1ccccc1)c1ccccc1` [diphenhydramine], in the data set with healthy adults [1], the “Subjective sleepiness relative to placebo” value was “significant increase in subjective sleepiness relative to placebo at the 2.5-3 hr and 3.5-4 hr post-treatment intervals”. Moreover, the “NCFC index change from pre-medication baseline” value with healthy adults [2] (16 subjects, t1-t4) is given as “large drop in value”. Besides, the “NCFC sub index most affected” value with healthy adults [2] (in vivo) is recorded as “largest impact on the Neurophysiological Alertness sub index”. The Memory-evoked shift result in the data set with healthy elderly subjects [3] (2.5 hrs after drug ingestion) is “significantly attenuated”. The “Delay of early frontal positive deflection (P120) relative to placebo” value in the data set on healthy elderly subjects [3] (ITM task, average) is 10 ms. Also, the “Task-related EEG activity in delta, theta and alpha bands relative to placebo” value in the data set on healthy elderly subjects [3] (elderly) is given as “increased activity”. Also, in the data set with healthy adults [4] (Resting EEG Eyes Closed), the “Direction of significant (p < .05) change in spectral power (vs. placebo): Oz alpha” value was “▾”, the “Direction of significant (p < .05) change in spectral power (vs. placebo): Pz delta” value is reported as “▴” and the “Direction of significant (p < .05) change in spectral power (vs. placebo): Pz theta” value is given as “▬”. Further, in the data set on healthy adults [4] (Resting EEG Eyes Open), the “Direction of significant (p < .05) change in spectral power (vs. placebo): Oz alpha” value was “▬”, the “Direction of significant (p < .05) change in spectral power (vs. placebo): Pz delta” value is reported as “▴” and the “Direction of significant (p < .05) change in spectral power (vs. placebo): Pz theta” value is given as “▬”. In the data set with healthy adults [4] (Task EEG High Load), the “Direction of significant (p < .05) change in spectral power (vs. placebo): Pz alpha” value is reported as “▬” and the “Direction of significant (p < .05) change in spectral power (vs. placebo): aFz theta” value is reported as “▾”. For the same compound, in the data set with healthy adults [4] (Task EEG Low Load), the “Direction of significant (p < .05) change in spectral power (vs. placebo): Pz alpha” value is recorded as “▬” and the “Direction of significant (p < .05) change in spectral power (vs. placebo): aFz theta” value is recorded as “▬”. Besides, the “Subjects with negative index score at nadir” value with healthy elderly subjects [5] is on record as 11 of the 12.

The record behind these values is patent US6947790B2, “Neurocognitive function EEG measurement method and system” (priority 2000, dated 2005).
